“And” between values parts separate entries of the source, which are not always exact repeats. Equal values may be shown once.
Details: in vivo

[2H]C(C(=O)OCC)C([2H])[13C](=O)OCC (centres unmarked) [diethyl 1-^13C 2,3-d2 succinate]
time for which the signal can be measured: over 3 min | T1 of the labeled carbonyl (9:1 water to D2O, 20 mM, 4.7 T): 38 ± 4 s and 38 s
